Measured values published in PubChem BioAssay AID2685 (National Center for Advancing Translational Sciences (NCATS), 2010).
Some of the results follow. Shown are side measurements of this screen, not its main read-out; they come without a call. The list favours compounds with an active or inconclusive main result. Words in brackets tell the shape of the fitted curve; partial curves, single points and poor fits give uncertain potencies.

Assay: qHTS Assay for Lipid Storage Modulators in Drosophila S3 Cells;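 on cell number change: cells counted by Cell Tracker Red CMTPX staining in the red channel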
Conditions: BODIPY lipid droplet fluorescence, 18-24 h; for cell number change: measured here: cell count max response, cells fed with added oleic acid
How it was run: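 Drosophila S3 cells got compounds at several concentrations plus oleic acid (400 uM solution). Laser-scanning cytometry with 488 nm excitation read lipid droplets at 500-530 nm and cells at 575-640 nm. Percent activity was relative to 20 uM Triacsin C.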

[1] = measured here: lipid fluorescence (Fed channel) AC50, cells fed with added oleic acid
[2] = measured here: cell number channel AC50, cells fed with added oleic acid

SMILES	cell number change [%]	AC50 [1]	AC50 [2]
Cc1ccc(NC2CCCN(C(=O)CCN3CCOCC3)C2)cc1C (stereo not given)	-2.6	29.1 µM [rising, single point]	–
Cc1cc(C(=O)CSc2nnc(-c3ccco3)o2)c(C)n1-c1ccc2c(c1)OCCO2	-5.81	0.164 µM [falling, full curve, poor fit]	–
Cc1onc(-c2ccccc2)c1C(=O)N1CCCC(C(F)(F)F)C1 (stereo not given)	10.2	–	–
O=C(COC(=O)c1ccc(Br)o1)Nc1ncc([N+](=O)[O-])s1	2.89	–	–
COc1ccc(NC(=O)c2c(NC(=O)CNCc3ccco3)sc3c2CCC3)cc1	-29.2	20.6 µM [falling, partial curve, poor fit]	–
COc1ccccc1NC(=O)c1ccc(Cl)c(S(=O)(=O)N2CCOCC2)c1	-2.37	0.731 µM [rising, full curve, poor fit]	–
C=CCNc1nc(Cl)nc(Nc2ccc(OCC)cc2)n1	-36	29.1 µM [falling, single point]	29.1 µM [falling, single point]
COc1ccc(S(=O)(=O)N2CCC(C(=O)NC3CC3)CC2)cc1C	102	29.1 µM [rising, single point]	13 µM [rising, partial curve, poor fit]
CCOc1ccccc1NC(=O)CSc1nnc(-c2cccnc2)o1	-8.04	0.00517 µM [falling, full curve, poor fit]	–
CNc1nc2c(Cl)cc(Cl)cc2s1	3.92	–	0.00517 µM [rising, full curve, poor fit]
Cn1c(SCC(=O)Nc2ccc(F)cc2)nnc1C1CC1	-5	–	–
C=CCNC(=O)N1c2ccccc2Sc2ccccc21	14.2	0.82 µM [falling, full curve]	–
CCN(C(=O)COC(=O)c1c(C)noc1C)C1CCS(=O)(=O)C1 (stereo not given)	-51.6	0.0058 µM [falling, full curve, poor fit]	16.4 µM [falling, partial curve, poor fit]
O=C(/C=N/NC(=O)c1ccccc1Br)c1ccccc1	88.6	29.1 µM [rising, single point]	29.1 µM [rising, single point]
CCOc1ccccc1NC(=O)CSc1ncnc2c1oc1ccccc12	-2.19	–	–
Cc1ccccc1N(C(=O)CNC(=O)c1cccs1)C(C(=O)NC1CCCC1)c1ccncc1 (stereo not given)	-7.89	35.5 µM [rising, single point]	–
CCn1ncc([N+](=O)[O-])c1C(=O)Nc1c(C)cccc1C	5.03	3.66 µM [rising, full curve]	–
O=C(NCC1CCN(S(=O)(=O)c2ccccc2)CC1)Nc1ccc(F)cc1	-1.06	–	2.06 µM [rising, partial curve]
C=CCn1c(CCc2cc(C(C)(C)C)c(O)c(C(C)(C)C)c2)n[nH]c1=S	-4.81	2.59 µM [rising, full curve, poor fit]	–
CCSc1c(-c2ccccc2)nc2c(C)cccc2c1C(=O)O	-34.3	29.1 µM [falling, single point]	32.6 µM [falling, single point]
COc1ccc2ccccc2c1CN(C)Cc1ccccc1	-8.03	–	–

A section taken from the entries so far:
SMILES	cell number change [%]	AC50 [1]	AC50 [2]
Cc1ccccc1N(C(=O)CNC(=O)c1cccs1)C(C(=O)NC1CCCC1)c1ccncc1 (stereo not given)	-7.89	35.5 µM [rising, single point]	–
CCn1ncc([N+](=O)[O-])c1C(=O)Nc1c(C)cccc1C	5.03	3.66 µM [rising, full curve]	–
O=C(NCC1CCN(S(=O)(=O)c2ccccc2)CC1)Nc1ccc(F)cc1	-1.06	–	2.06 µM [rising, partial curve]
C=CCn1c(CCc2cc(C(C)(C)C)c(O)c(C(C)(C)C)c2)n[nH]c1=S	-4.81	2.59 µM [rising, full curve, poor fit]	–

(further entries)

SMILES	cell number change [%]	AC50 [1]	AC50 [2]
CCCOc1ccc(Cl)cc1CN1CCOCC1	-10.3	0.92 µM [falling, partial curve, poor fit]	–
O=C(O)c1ccc(/C=N/Nc2nc(N3CCCCC3)nc(N3CCCCC3)n2)cc1	24.5	29.1 µM [rising, single point]	–
CCCS(=O)(=O)c1nc(S(=O)(=O)c2ccc(C)cc2)c(N2CCOCC2)s1	-32.4	–	35.5 µM [falling, single point]
Cc1csc(NC(=O)[C@@H]2CCCN2C(=O)c2cccs2)n1	7.28	–	–
COc1cccc(C#Cc2c(CO)[nH]c3ccccc23)c1	-0.776	25.9 µM [falling, single point]	–
COc1ccccc1N(C)S(=O)(=O)c1ccc(Cl)c(C(=O)Nc2ccncc2)c1	2.78	18.4 µM [falling, single point]	–
CCOC(=O)c1[nH]c(C)c(C(=O)OCC)c1C	6.45	0.0366 µM [rising, single point]	–
CC(=O)Nc1cccc(C(=O)OCC(=O)NNC(=O)c2ccc([N+](=O)[O-])cc2)c1	13	–	–
CC1CCN(C(=O)/C(=C\c2ccccc2F)NC(=O)c2ccccc2)CC1	-24.4	–	–
CCOC(=O)N1CCN(C(=O)CCc2c(C)nc3nc(C)nn3c2C)CC1	-11.9	3.26 µM [falling, single point]	–
CCOC(=O)c1ccccc1NC(=O)N[C@@H](C)C(=O)OC	-59.5	–	29.1 µM [falling, single point]
O=C(CSc1nc(=O)n(CCN2CCOCC2)c2c1CCCC2)Nc1ccc(F)cc1F	-25	–	0.58 µM [rising, full curve]
CCN(Cc1ccncc1)C(=O)c1cc(COc2ccc(C)c(C)c2)on1	-27.9	–	–
CCc1ccc(C(=O)CSc2nnc(C3CC3)n2C2CC2)cc1	15.8	0.731 µM [falling, single point]	–
Cc1ccc(NC(=O)CSc2nnc3c(n2)[nH]c2ccccc23)cc1	-13.3	6.51 µM [rising, single point]	–
COCCOC(=O)c1[nH]c2c(c1C)C(=O)CC(c1ccc(OC)cc1)C2 (stereo not given)	7.61	1.03 µM [rising, full curve]	–
CC(=O)Nc1cc(C(F)(F)F)ccc1OCC1CCCO1 (stereo not given)	-13.2	–	–
Cn1nnnc1SCC(=O)N1CCN(c2ccc(Cl)cc2)CC1	-8.09	–	–
COc1cccc(N2C(=O)CC(NNC(=O)c3cccs3)C2=O)c1 (stereo not given)	–	14.6 µM [rising, partial curve]	–
CN1CCN(S(=O)(=O)c2ccc(N(C)CC(=O)Nc3ccc(F)cc3)nc2)CC1	-32.7	–	32.6 µM [falling, single point]
Cc1ccc(CCNC(=O)CS(=O)Cc2nc(-c3cccs3)oc2C)cc1 (stereo not given)	–	8.2 µM [rising, partial curve]	–

SMILES	cell number change [%]	AC50 [1]	AC50 [2]
Cc1cc(Cl)ccc1OCCCC(=O)NNC(=O)c1ccncc1	33	0.231 µM [rising, full curve, poor fit]	16.4 µM [rising, partial curve, poor fit]
COc1cccc(CNC(=O)Cc2csc(Nc3nc(=S)[nH]c4ccccc34)n2)c1	80.2	16.4 µM [rising, partial curve, poor fit]	3.26 µM [rising, full curve]
CC1(C2CC2)NC(=O)N(CC(=O)Nc2ccccc2C#N)C1=O (stereo not given)	-8.84	–	–
CC(Oc1ccccc1)C(=O)OCC(=O)Nc1sccc1C(N)=O (stereo not given)	-45.3	4.61 µM [falling, full curve]	5.17 µM [falling, full curve]
C/C(CC(=O)Nc1ccc2c(c1)OCCO2)=N\NC(=O)COc1ccccc1	-19.7	–	–
COc1ccccc1NS(=O)(=O)c1cccc(NC(=O)Nc2ccccc2)c1	20.6	2.31 µM [rising, partial curve]	–
COc1ccccc1Nc1nn2c(=O)c3ccc(C(=O)N4CCC(C)CC4)cc3nc2s1	-19.9	0.82 µM [falling, full curve]	–
CCN(CC)S(=O)(=O)c1ccc2[nH]c(=O)[nH]c2c1	41.2	–	2.31 µM [rising, partial curve]
O=C(Nc1c(C(=O)N2CCOCC2)cnn1-c1ccccc1Cl)c1ccco1	0.364	25.9 µM [falling, partial curve, poor fit]	–
CSc1ncccc1C(=O)OCC(=O)N(C)C	–	–	0.82 µM [falling, single point]
COc1ccccc1NC(=O)N(Cc1ccco1)Cc1cc2cc(C)cc(C)c2[nH]c1=O	30.1	23.1 µM [rising, partial curve]	0.517 µM [rising, full curve]
CCOC(=O)c1c(C)c(/C=N/Nc2ccccc2)n(C)c1C	1.54	6.51 µM [falling, single point]	–
CCOC(=O)c1ccc(NC(=O)C(CC)(CC)C(=O)OCC)cc1	10.8	4.11 µM [falling, single point]	–
CCCCN(C(=O)c1ccccc1Br)C1CCS(=O)(=O)C1 (stereo not given)	1.85	0.651 µM [falling, single point]	–
Cc1ccc2c(CN3CC(C)CC(C)C3)cc(=O)oc2c1 (stereo not given)	–	0.58 µM [falling, single point]	–
COc1cccc(C(C(=O)NC2CCCCC2)N(C(=O)c2ccco2)c2ccccc2OC)c1 (stereo not given)	-25.6	–	–
FC(F)(F)c1cc(-c2cccs2)nc(N2CCOCC2)n1	-6.76	9.2 µM [rising, partial curve]	–
CC1CCCC/C1=N\Nc1ccc(S(N)(=O)=O)cc1[N+](=O)[O-] (stereo not given)	367	–	25.9 µM [rising, partial curve]
C/C(=C(\C#N)C(=O)NCCCN1CCOCC1)N(C)C	-74.3	29.1 µM [falling, single point]	20.6 µM [falling, single point]
O=C(Cn1nnc(-c2ccccc2)n1)N1CCN(S(=O)(=O)c2ccc(Cl)cc2)CC1	-4.46	5.8 µM [rising, single point]	6.51 µM [rising, single point]
CS(=O)(=O)N1CCN(C(=O)c2ccncc2)CC1	-17.4	0.259 µM [falling, full curve, poor fit]	0.326 µM [falling, full curve, poor fit]
